# Reference: PMC10385664, “Projection of Target Drug Particle Size in Oral Formulations Using the Refined Developability Classification System (rDCS)” (Pharmaceutics, 2023)
# Assay: rDCS dissolution rate analysis (kdiss vs kperm) by Rosenberger et al.
# Conditions: Excel template
# Text: Rosenberger et al. published an equation for kdiss based on the intrinsic dissolution rate (IDR) rather than CS (Equation (9)). Applying the hparticle assumption for larger particles with r0 ≥ 30 µm (hparticle = 30 µm) results in Equation (10). (9) kdiss=kIDR·IDR=3·hdisk/r0^2·ρ·IDR(r0<30 µm, hparticle=r0) (10) kdiss=kIDR·IDR=3·hdisk/r0·hparticle·ρ·IDR(r0≥30 µm, hparticle=30 µm)
# In these equations kIDR is the IDR rate constant, which accounts for the solvent kinematic viscosity, rotational speed of the compressed disk, diffusion coefficient, particle size and API density. Therefore, kIDR corrects for differences in experimental conditions that influence the measured IDR value. The ABL thickness of the rotating disk (hdisk) can be estimated according to Equation (11):(11) hdisk=4.98·ν^1/6·D^1/3·RPM^−1/2 where ν is the solvent kinematic viscosity and the stirring rate is expressed as revolutions per minute (RPM). When kdiss is based on the IDR, two modified Dn equations result (Equations (12) and (13)):(12) Dn=3·hdisk/r0^2·ρ·IDR·Tsi(r0<30 µm, hparticle=r0) (13) Dn=3·hdisk/r0·hparticle·ρ·IDR·Tsi(r0≥30 µm, hparticle=30 µm)
# The rDCS dissolution rate analysis was conducted according to Rosenberger et al.. For this, kdiss based on the IDR for a standard particle size of 100 µm was calculated (Equation (15)) and compared to kperm (Equation (10)). […]
structure (smiles),measurement,value
"C[C@@H](c1ncncc1F)[C@](O)(Cn1cncn1)c1ccc(F)cc1F [Voriconazole, voriconazole]",kIDR for r = 100 µm,0.0892 mg/cm2
